At least one result comes from cells or an extract, where the contact may be indirect. A weaker result is weaker than the reference pair of the same experiment. Tags and fusion partners may be left off the protein sequences shown.
Molecular target: T1, fractalkine expressed on MCA-38.FKN cells (UniProt P78423)
T1 sequence (looked up, limits assumed): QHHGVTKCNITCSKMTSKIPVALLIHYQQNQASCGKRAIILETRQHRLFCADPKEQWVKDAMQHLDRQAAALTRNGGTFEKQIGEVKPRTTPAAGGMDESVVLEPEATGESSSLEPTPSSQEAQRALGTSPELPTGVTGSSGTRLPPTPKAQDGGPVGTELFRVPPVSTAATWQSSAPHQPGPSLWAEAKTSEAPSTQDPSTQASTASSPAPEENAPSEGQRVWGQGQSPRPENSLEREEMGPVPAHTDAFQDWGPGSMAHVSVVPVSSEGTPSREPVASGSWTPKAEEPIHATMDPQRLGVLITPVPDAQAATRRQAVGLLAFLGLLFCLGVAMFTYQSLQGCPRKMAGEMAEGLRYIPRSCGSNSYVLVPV
Experiment: flow cytometry
Conditions: protein on the cell surface, protein details: transfected murine colonic epithelial MCA-38 cells, single-stranded DNA, variant of FKN-S2

GGGGTGGGTGGGGGGCACGTGTGGGGGCGGCCAGGGTGCT [3' No Spacer FKN-S2 Amphiphile]
binding result (3' C6 amino-linked C16 dialkyl tail, liposomes on MCA-38.FKN cells, 37 C, less than 3' 10T): binds more weakly

GGGGTGGGTGGGGGGCACGTGTGGGGGCGGCCAGGGTGCT [3' C12 FKN-S2 Amphiphile]
binding result (3' C12 spacer + C16 dialkyl tail, liposomes on MCA-38.FKN cells, 37 C, less than 3' 10T): binds more weakly

GGGGTGGGTGGGGGGCACGTGTGGGGGCGGCCAGGGTGCT [3' PEG8 FKN-S2 Amphiphile]
binding result (3' PEG8 spacer + C16 dialkyl tail, liposomes on MCA-38.FKN cells, 37 C, less than 3' 10T): binds more weakly

GGGGTGGGTGGGGGGCACGTGTGGGGGCGGCCAGGGTGCTTTTTTTTTTT [3' 10T FKN-S2 Amphiphile]
binding result (3' C16 dialkyl tail, calcein liposomes, MCA-38.FKN cells, DPBS with Ca/Mg, 37 C 1 h, best of four spacers, confocal shows binding and internalization): binds
